Patent US6127119, “Nucleic acid ligands of tissue target” (NeXstar Pharmaceuticals, Inc.)

Chains of the proteins cited; added tags and fusions are not shown. Chains listed by the source or under a name are the forms on record and can include a tag or linker.
Fibrinogen (Homo sapiens), one chain, as listed by the source, chain 3 of 3: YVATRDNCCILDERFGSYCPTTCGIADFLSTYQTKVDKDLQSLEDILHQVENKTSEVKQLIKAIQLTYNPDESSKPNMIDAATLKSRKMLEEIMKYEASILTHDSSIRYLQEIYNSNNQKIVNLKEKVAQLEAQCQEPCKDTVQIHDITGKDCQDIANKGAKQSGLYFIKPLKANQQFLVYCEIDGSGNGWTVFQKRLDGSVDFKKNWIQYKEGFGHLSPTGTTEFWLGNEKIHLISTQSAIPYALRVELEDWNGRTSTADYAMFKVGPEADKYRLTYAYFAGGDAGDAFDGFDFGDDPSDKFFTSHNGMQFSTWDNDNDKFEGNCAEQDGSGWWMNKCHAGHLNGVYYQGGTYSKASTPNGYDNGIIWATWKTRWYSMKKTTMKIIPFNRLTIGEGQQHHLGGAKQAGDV
Fibrinogen (Homo sapiens), one chain, as listed by the source, chain 1 of 3: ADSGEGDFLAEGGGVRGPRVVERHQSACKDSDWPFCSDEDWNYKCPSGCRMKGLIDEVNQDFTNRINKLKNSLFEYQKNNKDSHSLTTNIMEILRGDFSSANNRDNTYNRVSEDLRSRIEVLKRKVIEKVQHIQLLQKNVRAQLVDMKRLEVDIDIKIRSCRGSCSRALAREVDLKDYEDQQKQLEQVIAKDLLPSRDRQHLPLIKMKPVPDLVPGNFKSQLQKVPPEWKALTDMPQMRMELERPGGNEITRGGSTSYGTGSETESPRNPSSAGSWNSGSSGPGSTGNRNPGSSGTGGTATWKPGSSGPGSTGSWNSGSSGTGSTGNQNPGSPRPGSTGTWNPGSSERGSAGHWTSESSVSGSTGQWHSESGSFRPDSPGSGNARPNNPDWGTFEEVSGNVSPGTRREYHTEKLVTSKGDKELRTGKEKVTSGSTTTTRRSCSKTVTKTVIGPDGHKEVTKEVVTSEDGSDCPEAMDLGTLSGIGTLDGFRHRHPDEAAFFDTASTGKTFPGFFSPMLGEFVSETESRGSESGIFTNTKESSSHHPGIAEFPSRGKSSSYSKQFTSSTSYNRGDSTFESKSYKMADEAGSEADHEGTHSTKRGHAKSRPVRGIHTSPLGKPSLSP
Fibrinogen (Homo sapiens), one chain, as listed by the source, chain 2 of 3: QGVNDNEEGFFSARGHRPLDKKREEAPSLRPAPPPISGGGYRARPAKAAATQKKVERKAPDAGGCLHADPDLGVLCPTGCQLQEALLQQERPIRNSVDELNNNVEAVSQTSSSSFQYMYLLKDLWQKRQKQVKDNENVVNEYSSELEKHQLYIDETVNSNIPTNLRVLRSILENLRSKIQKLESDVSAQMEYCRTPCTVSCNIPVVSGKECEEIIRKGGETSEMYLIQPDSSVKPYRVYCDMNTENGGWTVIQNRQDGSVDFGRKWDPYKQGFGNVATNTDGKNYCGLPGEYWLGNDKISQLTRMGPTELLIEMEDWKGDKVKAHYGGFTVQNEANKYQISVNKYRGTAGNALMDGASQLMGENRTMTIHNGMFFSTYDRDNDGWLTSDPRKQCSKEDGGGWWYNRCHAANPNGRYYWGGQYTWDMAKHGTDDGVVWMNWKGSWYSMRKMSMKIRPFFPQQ

System: Fibrinogen (Homo sapiens)
Assay: filter binding
Conditions: 2'-F pyrimidines
[1] = low class, Motif II extrapolated Kd >100 uM
[2] = high class, printed l mM, probably uM, Motif I definitive Kd 200-600 nM

| Sequence | Kd [1] | Kd [2] |
| --- | --- | --- |
| GGGAGAUAAGAAUAAACGCUCAAAAAGUGUAGCCUUCCUGGACUGUAGGUACUAGGACGGUCCUUCGACAGGAGGCUCACAACAGGC [FCN38] | > 0.001 mM | – |
| GGGAGAUAAGAAUAAACGCUCAAAAGAAGCUGGCGACAGGCGAAAAGCAGACUUGAGGGGAAUUCGACAGGAGGCUCACAACAGGC [FCN55] | > 0.001 mM | – |
| GGGAGAUAAGAAUAAACGCUCAAAAGUCUGAGACUCCUGGACUGAAUUAGCUAGGACGGCUGUUCGACAGGAGGCUCACAACAGGC [FCN19] | > 0.001 mM | – |
| GGGAGAUAAGAAUAAACGCUCAAACAAAUGUGCGCCCUUGGACGAAGUUAACUCGGACGGUUCUUCGACAGGAGGCUCACAACAGGC [FC69] | > 0.001 mM | – |
| GGGAGAUAAGAAUAAACGCUCAAACAAAUGUGCGCCCUUGGACGAAGUUAACUCGGACGGUUCUUCGACAGGAGGCUCACAACAGGC [FCN16] | > 0.001 mM | – |
| GGGAGAUAAGAAUAAACGCUCAAACAAAUGUGCGCCCUUGGACGAAGUUAACUCGGACGGUUGUUCGACAGGAGGCUCACAACAGGC [FC72] | > 0.001 mM | – |
| GGGAGAUAAGAAUAAACGCUCAAACAAAUGUGCUCCCUUGGACGAAGUUAACUCGGCGGUUCGACAGGAGGCUCACAACAGGC [FCN44] | > 0.001 mM | – |
| GGGAGAUAAGAAUAAACGCUCAAAGUAGGUGAGGCUUCUGGACUGAAGUAACUAGGUCGGUUCUUCGACAGGAGGCUCACAACAGGC [FCN72] | > 0.001 mM | – |
| GGGAGAUAAGAAUAAACGCUCAAGCAAUCUCGGACUAGACUAACGACCUUCGUUUGACGCUCAUUCGACAGGAGGCUCACAACAGGC [FC51] | – | < 0.001 mM |
| GGGAGAUAAGAAUAAACGCUCAAGCAAUCUCGGACUAGACUAACGACCUUCGUUUGACGCUUAUUCGACAGGAGGCUCACAACAGGC [FCN14] | – | < 0.001 mM |
| GGGAGAUAAGAAUAAACGCUCAAGCAAUCUCGGACUAGACUAACGACCUUGGUUUGACGCUAAUUCGACAGGAGGCUCACAACAGGC [FC50] | – | < 0.001 mM |
| GGGAGAUAAGAAUAAACGCUCAAGCAAUCUCGGACUAGGCUAACGACCUUUGUUUGACGCUCAUUCGACAGGAGGCUCACAACAGGC [FCN11] | – | < 0.001 mM |
| GGGAGAUAAGAAUAAACGCUCAAUAGGAGCCUAGCAGCCCCUGCAUCGAUCACUAGGAUGGUUUUCGACAGGAGGCUCACAACAGGC [FCN30] | > 0.001 mM | – |

The exact form of at least one protein or probe is not confirmed.
